Results published in paper PMC3923297, “Structural basis for microtubule recognition by the human kinetochore Ska complex” (Nature Communications, 2014).
Results are given in words; binding and its absence hold for the method and conditions named. Some binding calls cover weakened binding; strength is not graded here.

Amino acid sequences for entries named in this document (tags omitted). A change or cut given only in a name is not applied to a line headed by its entry. Chains listed by the source or under a name are the forms on record and can include a tag or linker.
UniProt Q8IX90: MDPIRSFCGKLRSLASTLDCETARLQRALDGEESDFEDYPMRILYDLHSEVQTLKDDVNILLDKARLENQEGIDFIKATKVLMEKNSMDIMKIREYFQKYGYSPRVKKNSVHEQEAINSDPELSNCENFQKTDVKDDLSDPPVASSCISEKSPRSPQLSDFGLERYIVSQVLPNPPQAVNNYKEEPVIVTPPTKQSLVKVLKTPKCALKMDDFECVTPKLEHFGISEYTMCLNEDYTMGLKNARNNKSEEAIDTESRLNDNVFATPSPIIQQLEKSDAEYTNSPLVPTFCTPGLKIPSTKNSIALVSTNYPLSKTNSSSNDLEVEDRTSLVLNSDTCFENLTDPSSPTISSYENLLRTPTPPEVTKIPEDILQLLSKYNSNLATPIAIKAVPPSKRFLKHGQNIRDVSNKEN
UniProt Q96BD8: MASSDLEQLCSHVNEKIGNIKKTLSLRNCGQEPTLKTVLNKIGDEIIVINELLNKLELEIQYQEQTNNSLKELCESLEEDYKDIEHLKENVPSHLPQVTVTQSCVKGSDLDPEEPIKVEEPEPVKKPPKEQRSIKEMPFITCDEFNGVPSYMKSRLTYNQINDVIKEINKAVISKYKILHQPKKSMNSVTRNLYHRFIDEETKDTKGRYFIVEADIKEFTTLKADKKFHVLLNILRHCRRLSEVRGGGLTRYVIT
Ska1 R236/245A (Q96BD8, form named): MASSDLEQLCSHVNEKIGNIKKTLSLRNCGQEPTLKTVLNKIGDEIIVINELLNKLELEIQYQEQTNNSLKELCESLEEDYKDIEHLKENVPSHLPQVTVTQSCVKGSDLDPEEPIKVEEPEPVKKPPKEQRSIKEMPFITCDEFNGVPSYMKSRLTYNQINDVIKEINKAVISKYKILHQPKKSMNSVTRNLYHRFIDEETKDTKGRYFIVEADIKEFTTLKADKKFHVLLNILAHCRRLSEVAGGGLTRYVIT
Ska1 K170/177A (Q96BD8, form named): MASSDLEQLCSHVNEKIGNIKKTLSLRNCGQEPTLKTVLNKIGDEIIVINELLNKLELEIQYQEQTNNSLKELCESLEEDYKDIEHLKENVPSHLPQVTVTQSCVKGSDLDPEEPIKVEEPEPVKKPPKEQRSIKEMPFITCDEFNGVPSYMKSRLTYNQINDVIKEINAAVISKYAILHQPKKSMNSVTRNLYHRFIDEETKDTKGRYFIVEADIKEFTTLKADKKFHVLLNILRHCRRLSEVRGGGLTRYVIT
Ska1 K183/184/203/206A (Q96BD8, form named): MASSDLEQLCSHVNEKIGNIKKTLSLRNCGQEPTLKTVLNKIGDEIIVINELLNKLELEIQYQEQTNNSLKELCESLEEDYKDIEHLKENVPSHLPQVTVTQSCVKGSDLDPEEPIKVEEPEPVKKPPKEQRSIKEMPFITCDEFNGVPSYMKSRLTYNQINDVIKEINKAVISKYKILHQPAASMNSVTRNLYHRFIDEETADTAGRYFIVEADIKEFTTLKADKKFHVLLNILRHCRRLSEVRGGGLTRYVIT
Ska1 K183/184/203/206/217/223/226/227/R236/245A (Q96BD8, form named): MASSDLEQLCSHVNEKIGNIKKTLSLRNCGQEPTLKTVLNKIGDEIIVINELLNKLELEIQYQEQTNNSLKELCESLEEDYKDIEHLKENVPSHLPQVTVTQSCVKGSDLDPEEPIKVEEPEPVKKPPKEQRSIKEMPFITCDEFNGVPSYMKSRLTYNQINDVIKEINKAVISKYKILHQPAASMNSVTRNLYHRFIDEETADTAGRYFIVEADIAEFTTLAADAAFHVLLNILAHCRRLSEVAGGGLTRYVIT
Ska1 K135/203/206A (Q96BD8, form named): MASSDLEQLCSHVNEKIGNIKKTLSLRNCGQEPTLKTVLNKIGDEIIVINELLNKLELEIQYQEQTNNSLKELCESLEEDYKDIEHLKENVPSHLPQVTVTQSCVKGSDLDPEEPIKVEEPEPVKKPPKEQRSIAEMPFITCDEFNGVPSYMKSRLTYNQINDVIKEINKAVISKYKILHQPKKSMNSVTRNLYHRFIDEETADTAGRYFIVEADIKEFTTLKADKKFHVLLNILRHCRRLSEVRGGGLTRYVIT
Ska1 R155/236/245A (Q96BD8, form named): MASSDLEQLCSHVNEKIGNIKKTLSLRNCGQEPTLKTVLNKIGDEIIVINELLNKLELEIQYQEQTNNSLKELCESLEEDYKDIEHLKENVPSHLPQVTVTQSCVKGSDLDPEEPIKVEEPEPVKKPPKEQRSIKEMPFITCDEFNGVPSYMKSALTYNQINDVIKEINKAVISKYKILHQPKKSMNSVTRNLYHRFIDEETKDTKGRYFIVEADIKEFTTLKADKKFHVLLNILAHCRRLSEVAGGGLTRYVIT
Ska1 K217/223/226/227A (Q96BD8, form named): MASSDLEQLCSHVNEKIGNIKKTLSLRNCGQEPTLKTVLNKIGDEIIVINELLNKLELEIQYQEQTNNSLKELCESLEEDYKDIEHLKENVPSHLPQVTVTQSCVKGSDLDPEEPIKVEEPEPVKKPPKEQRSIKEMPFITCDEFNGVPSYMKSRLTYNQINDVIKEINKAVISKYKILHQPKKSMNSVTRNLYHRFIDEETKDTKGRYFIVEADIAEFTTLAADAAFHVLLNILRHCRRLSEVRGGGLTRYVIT

Molecular target: Ska3 V58I (human) (UniProt Q8IX90)
Assay: co-purification (co-expression, glutathione affinity, size-exclusion chromatography); Ska1, Ska2 (His-GST) and Ska3 co-expressed in E. coli BL21 Gold; captured on glutathione sepharose, tags cleaved, Superose 6 in 20 mM Tris pH 8, 100 mM NaCl, 5 mM DTT; subunits seen on SDS-PAGE

binding, binds:
Ska1 R236/245A (from UniProt Q96BD8 1-255)
Ska1, wild type, full length (from UniProt Q96BD8 1-255)
Ska1 K170/177A (from UniProt Q96BD8 1-255)
Ska1 K183/184/203/206A (from UniProt Q96BD8 1-255)
Ska1 K183/184/203/206/217/223/226/227/R236/245A (from UniProt Q96BD8 1-255)
Ska1 K135/203/206A (from UniProt Q96BD8 1-255)
Ska1 R155/236/245A (from UniProt Q96BD8 1-255)
Ska1 K217/223/226/227A (from UniProt Q96BD8 1-255)
